This is one part of the list. Single values are uncertain, as repeats are few or missing.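 Cells were imaged in 1,536-well plates, and nuclei stained with an antibody against cleaved PARP were counted against all DNA-stained nuclei to give the apoptosis fraction. Screening doses were chosen to leave most cells alive, and resting and induced cleaved-PARP levels differ strongly between cell lines.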

This experiment concerns WM115. As to the kind of experiment: cleaved PARP positive nuclei fraction relative to DMSO control; melanoma cells; higher = more apoptosis. To be noted: library dose: low library concentration; 72 h.
As for `O=c1[nH]nc(Sc2ncc([N+](=O)[O-])s2)n1-c1ccc2c(c1)OCCO2` + COc1ccc(COc2ccc(Cc3cnc(N)nc3N)cc2OC)cc1 [GW2580] (first compound 0.2 µM, partner dose 1 µM), the “cleaved PARP positive nuclei fraction” value came to 52.6%. For the compound `COc1cc([C@@H]2c3cc4c(cc3[C@@H](O[C@@H]3O[C@@H]5CO[C@@H](C)O[C@H]5[C@H](O)[C@H]3O)[C@H]3COC(=O)[C@H]23)OCO4)cc(OC)c1O` [etoposide] + O=S(=O)(c1ccccc1)N(CC(F)(F)F)c1ccc(C(O)(C(F)(F)F)C(F)(F)F)cc1 [T0901317] (first compound 0.02 µM, partner dose 1.4 µM), the “cleaved PARP positive nuclei fraction” value came out at 75.5%. The figure for `O=c1[nH]nc(Sc2ncc([N+](=O)[O-])s2)n1-c1ccc2c(c1)OCCO2` + O=S(=O)(c1ccccc1)N(CC(F)(F)F)c1ccc(C(O)(C(F)(F)F)C(F)(F)F)cc1 [T0901317] (first compound 0.2 µM, partner dose 1.4 µM) is 159%. The figure for `Cc1cc(Nc2cc(N3CCN(C)CC3)nc(Sc3ccc(NC(=O)C4CC4)cc3)n2)n[nH]1` [Tozasertib] + Cn1cncc1[C@@](N)(c1ccc(Cl)cc1)c1ccc2c(c1)c(-c1cccc(Cl)c1)cc(=O)n2C [tipifarnib] (first compound 0.006 µM, partner dose 0.01 µM) is 203%. As to `CC[C@]1(O)C[C@H]2CN(CCc3c([nH]c4ccccc34)[C@@](C(=O)OC)(c3cc4c(cc3OC)N(C=O)[C@H]3[C@@](O)(C(=O)OC)[C@H](OC(C)=O)[C@]5(CC)C=CCN6CC[C@]43[C@@H]65)C2)C1` [vincristine] + c1cc(-c2cnn3cc(-c4ccc(OCCN5CCCCC5)cc4)cnc23)ccn1 [Dorsomorphin] (first compound 0.0001 µM, partner dose 0.4 µM), the “cleaved PARP positive nuclei fraction” value was found to be 1410%. Turning to `Cc1ccc(Nc2nccc(N(C)c3ccc4c(C)n(C)nc4c3)n2)cc1S(N)(=O)=O` [Pazopanib] + CN(NC(=O)CC(=O)NN(C)C(=S)c1ccccc1)C(=S)c1ccccc1 [STA4783] (first compound 0.4 µM, partner dose 0.006 µM), the “cleaved PARP positive nuclei fraction” value was found to be 112%. In the case of `Cc1cn(-c2cc(NC(=O)c3ccc(C)c(Nc4nccc(-c5cccnc5)n4)c3)cc(C(F)(F)F)c2)cn1` [nilotinib] + COc1ccc(COc2ccc(Cc3cnc(N)nc3N)cc2OC)cc1 [GW2580] (first compound 0.2 µM, partner dose 1 µM), the “cleaved PARP positive nuclei fraction” value was 94.6%.

Consider `COc1cc([C@@H]2c3cc4c(cc3[C@@H](O[C@@H]3O[C@@H]5CO[C@@H](C)O[C@H]5[C@H](O)[C@H]3O)[C@H]3COC(=O)[C@H]23)OCO4)cc(OC)c1O` [etoposide] + C[C@@H]1CCN(C(=O)CC#N)C[C@@H]1N(C)c1ncnc2[nH]ccc12 [CP690550] (first compound 0.02 µM, partner dose 1 µM), for which the “cleaved PARP positive nuclei fraction” value came out at 16.8%. As to `Cc1cn(-c2cc(NC(=O)c3ccc(C)c(Nc4nccc(-c5cccnc5)n4)c3)cc(C(F)(F)F)c2)cn1` [nilotinib] + Cn1cc(/C=C2\C(=O)Nc3cccnc32)c2ccccc21 [GW441756] (first compound 0.2 µM, partner dose 0.4 µM), the “cleaved PARP positive nuclei fraction” value was 87.5%. In the case of `Cc1cn(-c2cc(NC(=O)c3ccc(C)c(Nc4nccc(-c5cccnc5)n4)c3)cc(C(F)(F)F)c2)cn1` [nilotinib] + O=c1cc(-c2cccc3c2Sc2ccccc2S3)oc(N2CCOCC2)c1 [KU55933] (first compound 0.2 µM, partner dose 1 µM), the “cleaved PARP positive nuclei fraction” value came to 93.4%. For the compound `CC[C@]1(O)C[C@H]2CN(CCc3c([nH]c4ccccc34)[C@@](C(=O)OC)(c3cc4c(cc3OC)N(C=O)[C@H]3[C@@](O)(C(=O)OC)[C@H](OC(C)=O)[C@]5(CC)C=CCN6CC[C@]43[C@@H]65)C2)C1` [vincristine] + NC(=O)Nc1cc(-c2cccc(F)c2)sc1C(=O)N[C@H]1CCCNC1 [AZD7762] (first compound 0.0001 µM, partner dose 0.02 µM), the “cleaved PARP positive nuclei fraction” value is 1240%.

Regarding `CCCCCCCCCCCCCCCCCCOP(=O)([O-])OC1CC[N+](C)(C)CC1` [Perifosine] + COc1ccc2c(c1)CCC1C2CCC2(C)C(NCCCCCCN3C(=O)C=CC3=O)CCC12 [U73122] (first compound 0.4 µM, partner dose 0.4 µM), the “cleaved PARP positive nuclei fraction” value is 115%.
